The data set can be described thus: Plasma triglycerides and cholesterol in rats dosed 14 days. In kind it is in vivo, Sprague Dawley rats.

In the case of `O=C(O)CNC(=O)c1nc(Cl)c2ccccc2c1O` [compound B, [(1-Chloro-4-hydroxy-isoquinoline-3-carbonyl)-amino]-acetic acid], the plasma cholesterol result is recorded as “no corresponding increase”. Moreover, the plasma triglycerides result (doses of 60, 100 and 200 mg/kg) is recorded as “significant increase”.
